According to patent US20230241030A1, “MACROGOL 15 HYDROXYSTEARATE FORMULATIONS” (Allergan, Inc., priority 2011, published 2023):
At least one read-out could not be matched to a standard name with certainty.

Columns and labels:
[1] = Stability of Cmpd 2 in formulations, percent remaining by LC; type: physicochemical; conditions: formulations of Table 2
Description: FIG. 1. See Examples. Samples were stored at 25° C. Axes: x-axis (time, months); y-axis (stability of Cmpd 2 as measured by percent remaining by liquid chromatography, LC). Legend: macrogol 15 hydroxystearate (box); polysorbate 80 (diamond).
See Examples. […] Axes: x-axis (time, months); y-axis (stability of Cmpd 2 as measured by percent remaining by liquid chromatography, LC). Legend Formulation PSI, storage 40° C./20% RH, % remaining by LC (Diamond); Formulation Sol1, storage 40° C./20% RH, % remaining by LC (Square); Formulation PSI, storage 25° C./40% RH, % remaining by LC (Triangle); Formulation Sol1, storage 25° C./40% RH, % remaining by LC (cross); Formulation PSI, storage 5° C., % remaining by LC (Asterix); Formulation Sol1, storage 5° C., % remaining by LC (circle).
Axes: x-axis (time, months); y-axis (stability of Cmpd 2 as measured by percent remaining by liquid chromatography, LC). Legend Formulation #2, storage 5°, % remaining by LC (Diamond); Formulation #2, storage 25° C./40% RH, % remaining by LC (Square); Formulation #2, storage 30° C./60% RH, % remaining by LC (Triangle); Formulation #5, storage 5° C., % remaining by LC (cross); Formulation #5, storage 25° C./40% RH, % remaining by LC (Asterix); Formulation #5, storage 30° C./60% RH, % remaining by LC (circle).

[2] = Stability of Cmpd 1 in formulations, impurities by percent area LC; type: physicochemical; conditions: formulations of Table 3
Description: FIGS. 2A-D: Stability results for Cmpd 1 in formulations containing either polysorbate 80 (PS80) or macrogol 15 hydroxystearate (Sol-2) as solubilizer as shown in Table 3. See Examples. […] Impurity amounts were calculated by percent area by liquid chromatography (LC). FIG. 2A: 25° C. storage, total impurities. FIG. 2B: 25° C. storage, major degradation product. FIG. 2C: 40° C. storage, total impurities. FIG. 2D: 40° C. storage, major degradation product. Legend: as in FIG. 1.

Row | SMILES | Stability in solutions containing Solutol HS 15 as solubilizer compared to polysorbate 80 [1] | Stability in solutions containing Solutol HS 15 as solubilizer compared to polysorbate 80 [2]
1 | CCCCC[C@H](O)c1ccc(N2C(=O)CC[C@@H]2CCCc2ccc(C(=O)OC(C)C)s2)cc1 [Cmpd 2, isopropyl 5-(3-((S)-1-(4-((S)-1-hydroxyhexyl)phenyl)-5-oxopyrrolidin-2-yl)propyl)thiophene-2-carboxylate] | Improved stability | 
2 | CCCCC[C@H](O)c1ccc(N2C(=O)CC[C@@H]2COCc2ccc(C(=O)OC(C)C)s2)cc1 [Cmpd 1, isopropyl 5-((((R)-1-(4-((S)-1-hydroxyhexyl)phenyl)-5-oxopyrrolidin-2-yl)methoxy)methyl)thiophene-2-carboxylate] |  | Improved stability
